# Source: PubChem BioAssay AID1224828 (NIAID, 2016)
# Purpose: 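Knock-downs that increase or decrease LPS-induced p65 nuclear translocation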 (primary screen)
# Cells: mouse RAW264.7 G9 macrophage reporter cells (GFP-p65, Tnf promoter-mCherry)
# Reagent: siRNA pool against mouse genes, 100 nM
# Timing: 2 days siRNA transfection, then 40 min LPS before fixation
# Treatment: LPS (Salmonella minnesota R595) at 10 ng/ml
# Measurement: 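Imaged p65 nuclear translocation ratio, normalised to the plate median, converted to robust z-scores and averaged across two replicates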
# Direction: p65 translocation robust z-score: higher = more nuclear NF-kappaB p65 after LPS than the plate median; nuclear/cytoplasmic p65 ratio: higher = more nuclear NF-kappaB p65
# Rule for the call: 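Called active when z exceeds 3.3 or falls under -1.56 (median of Tlr4 controls), giving activity score of at least 50; no calls for control wells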
# Calls: active = hit (p65 shift raised or lowered); inactive = no clear change
# The deposit covers about 17,000 reagents; below is an unselected part. Of all reagents, 762 (4.5%) were called active. 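Active calls include both raised and lowered p65 entry, mostly lowered; wells with fewer than 50 cells lack a z-score.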 Raw values vary from plate to plate and are shown uncorrected. Reagents against one gene are numbered here.
gene knocked down,pool no.,p65 translocation robust z-score,"nuclear/cytoplasmic p65 ratio, rep 1","nuclear/cytoplasmic p65 ratio, rep 2",low cell count flag,Call
Slc13a3,1,0.44,1.41,1.35,enough cells to score,inactive
Art2a,1,0.91,1.64,1.74,enough cells to score,inactive
Tssk3,1,-0.25,1.13,1.2,enough cells to score,inactive
Tssk3,2,-0.36,1.63,1.28,enough cells to score,inactive
Clca4a,1,1.2,1.67,1.63,enough cells to score,inactive
Nefm,1,-0.72,1.73,1.43,enough cells to score,inactive
Ss18l2,1,0.33,1.59,1.63,enough cells to score,inactive
Zim1,1,,1.09,0.999,fewer than 50 cells per well; well left out of scoring,inactive
Tmem215,1,0.9,1.56,1.59,enough cells to score,inactive
Cdk5,1,-0.08,1.55,1.48,enough cells to score,inactive
Mlx,1,0.34,1.53,1.6,enough cells to score,inactive

A stretch taken from the entries so far:
gene knocked down,pool no.,p65 translocation robust z-score,"nuclear/cytoplasmic p65 ratio, rep 1","nuclear/cytoplasmic p65 ratio, rep 2",low cell count flag,Call
Tssk3,1,-0.25,1.13,1.2,enough cells to score,inactive
Tssk3,2,-0.36,1.63,1.28,enough cells to score,inactive

The list goes on:
gene knocked down,pool no.,p65 translocation robust z-score,"nuclear/cytoplasmic p65 ratio, rep 1","nuclear/cytoplasmic p65 ratio, rep 2",low cell count flag,Call
Rnf2,1,,1.26,1.21,fewer than 50 cells per well; well left out of scoring,inactive
Hrk,1,-0.17,1.61,1.57,enough cells to score,inactive
Slc48a1,1,,1.39,1.1,fewer than 50 cells per well; well left out of scoring,inactive
Ift57,1,-0.88,1.43,1.18,enough cells to score,inactive
Adh1,1,-0.39,1.52,1.6,enough cells to score,inactive
Ffar4,1,0.42,1.47,1.45,enough cells to score,inactive
9330154K18Rik,1,0.06,1.46,1.53,enough cells to score,inactive
Dnajc8,1,2.19,1.79,1.62,enough cells to score,inactive
Flrt2,1,0.21,1.47,1.63,enough cells to score,inactive
Sp3,1,0.1,1.52,1.61,enough cells to score,inactive
Rtl1,1,0.59,1.55,1.24,enough cells to score,inactive
Or5d35,1,-2.17,1.37,1.22,enough cells to score,active
Trem4,1,0.92,1.58,1.57,enough cells to score,inactive
